In the supplement of paper PMC10849652:
This is one part of the list.

Sequences of proteins named here, by UniProt entry; tags and fusion partners are left off. A change or cut given only in a name is not applied to a line headed by its entry.
UniProt Q8TBE0: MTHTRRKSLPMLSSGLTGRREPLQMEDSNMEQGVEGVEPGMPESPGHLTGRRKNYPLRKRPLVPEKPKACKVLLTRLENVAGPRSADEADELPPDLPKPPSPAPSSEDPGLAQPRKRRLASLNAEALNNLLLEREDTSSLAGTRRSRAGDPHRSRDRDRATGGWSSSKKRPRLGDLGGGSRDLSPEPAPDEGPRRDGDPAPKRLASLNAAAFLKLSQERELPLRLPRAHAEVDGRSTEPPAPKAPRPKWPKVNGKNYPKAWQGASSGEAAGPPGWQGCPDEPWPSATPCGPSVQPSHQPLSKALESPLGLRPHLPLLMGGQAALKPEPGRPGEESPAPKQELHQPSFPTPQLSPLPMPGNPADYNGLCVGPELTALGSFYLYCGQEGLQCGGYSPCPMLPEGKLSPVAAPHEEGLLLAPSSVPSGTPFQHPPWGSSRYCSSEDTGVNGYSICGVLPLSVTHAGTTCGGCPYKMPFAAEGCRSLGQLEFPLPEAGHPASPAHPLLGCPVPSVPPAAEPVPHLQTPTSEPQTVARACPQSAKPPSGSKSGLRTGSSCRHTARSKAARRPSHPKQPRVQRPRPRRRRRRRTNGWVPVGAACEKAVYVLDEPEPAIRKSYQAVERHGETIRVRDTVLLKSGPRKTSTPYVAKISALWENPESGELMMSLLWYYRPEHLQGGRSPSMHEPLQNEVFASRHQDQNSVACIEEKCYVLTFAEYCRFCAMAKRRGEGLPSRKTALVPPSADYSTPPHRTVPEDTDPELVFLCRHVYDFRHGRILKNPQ
UniProt P38398, whole entry, looked up: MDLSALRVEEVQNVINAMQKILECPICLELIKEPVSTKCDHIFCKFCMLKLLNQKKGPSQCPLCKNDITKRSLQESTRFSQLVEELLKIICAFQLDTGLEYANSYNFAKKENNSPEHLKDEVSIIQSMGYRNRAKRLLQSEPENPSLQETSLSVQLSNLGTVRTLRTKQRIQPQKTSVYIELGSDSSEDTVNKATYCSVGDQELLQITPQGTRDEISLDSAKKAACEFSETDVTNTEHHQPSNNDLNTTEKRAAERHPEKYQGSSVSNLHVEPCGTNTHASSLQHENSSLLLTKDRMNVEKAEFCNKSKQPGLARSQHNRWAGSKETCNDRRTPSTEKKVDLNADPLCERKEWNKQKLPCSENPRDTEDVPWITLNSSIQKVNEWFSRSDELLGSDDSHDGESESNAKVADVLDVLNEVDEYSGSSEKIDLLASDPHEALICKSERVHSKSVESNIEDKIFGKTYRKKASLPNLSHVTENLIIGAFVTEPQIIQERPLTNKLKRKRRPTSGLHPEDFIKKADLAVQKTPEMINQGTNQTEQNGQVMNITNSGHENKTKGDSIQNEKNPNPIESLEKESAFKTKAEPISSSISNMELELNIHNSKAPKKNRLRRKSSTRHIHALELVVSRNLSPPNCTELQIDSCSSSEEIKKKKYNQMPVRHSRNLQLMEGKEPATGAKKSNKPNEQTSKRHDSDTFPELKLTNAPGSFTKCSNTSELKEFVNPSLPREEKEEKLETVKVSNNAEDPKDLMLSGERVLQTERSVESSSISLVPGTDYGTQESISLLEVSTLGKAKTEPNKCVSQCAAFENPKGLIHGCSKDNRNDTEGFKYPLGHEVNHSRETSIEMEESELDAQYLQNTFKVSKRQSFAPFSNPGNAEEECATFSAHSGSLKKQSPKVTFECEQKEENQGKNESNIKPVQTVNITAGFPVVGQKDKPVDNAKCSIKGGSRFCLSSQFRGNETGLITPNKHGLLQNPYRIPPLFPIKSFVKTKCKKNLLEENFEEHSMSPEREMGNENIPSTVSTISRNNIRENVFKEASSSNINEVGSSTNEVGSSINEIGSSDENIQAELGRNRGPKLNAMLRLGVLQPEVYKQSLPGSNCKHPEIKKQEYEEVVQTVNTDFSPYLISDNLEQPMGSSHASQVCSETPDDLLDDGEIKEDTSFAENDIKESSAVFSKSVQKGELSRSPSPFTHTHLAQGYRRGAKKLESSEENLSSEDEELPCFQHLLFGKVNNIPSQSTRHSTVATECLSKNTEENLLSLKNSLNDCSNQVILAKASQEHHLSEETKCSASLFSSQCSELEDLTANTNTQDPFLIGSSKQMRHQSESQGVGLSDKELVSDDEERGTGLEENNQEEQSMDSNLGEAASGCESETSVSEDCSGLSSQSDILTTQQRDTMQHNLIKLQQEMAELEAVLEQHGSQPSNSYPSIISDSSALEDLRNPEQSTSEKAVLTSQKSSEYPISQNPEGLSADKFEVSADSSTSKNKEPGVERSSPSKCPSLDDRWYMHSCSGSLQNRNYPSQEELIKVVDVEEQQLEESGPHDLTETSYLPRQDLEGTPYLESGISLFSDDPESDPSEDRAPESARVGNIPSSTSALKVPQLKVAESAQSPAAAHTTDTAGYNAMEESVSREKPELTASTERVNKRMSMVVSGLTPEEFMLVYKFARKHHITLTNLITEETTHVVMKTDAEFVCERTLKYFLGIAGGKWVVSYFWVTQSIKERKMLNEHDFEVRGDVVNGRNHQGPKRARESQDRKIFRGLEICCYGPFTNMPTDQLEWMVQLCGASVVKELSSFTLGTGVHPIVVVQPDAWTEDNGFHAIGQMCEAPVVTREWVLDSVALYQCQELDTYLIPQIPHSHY
UniProt Q4VC05, whole entry, looked up: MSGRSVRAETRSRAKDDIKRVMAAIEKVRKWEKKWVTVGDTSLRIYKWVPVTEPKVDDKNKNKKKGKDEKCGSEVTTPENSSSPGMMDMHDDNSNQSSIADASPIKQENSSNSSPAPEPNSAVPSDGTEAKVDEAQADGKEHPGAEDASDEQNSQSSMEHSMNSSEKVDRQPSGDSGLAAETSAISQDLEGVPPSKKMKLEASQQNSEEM
UniProt Q9NYM9: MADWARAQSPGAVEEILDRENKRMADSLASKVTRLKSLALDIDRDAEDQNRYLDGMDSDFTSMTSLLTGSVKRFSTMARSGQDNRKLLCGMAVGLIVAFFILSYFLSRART
UniProt Q9H7T9: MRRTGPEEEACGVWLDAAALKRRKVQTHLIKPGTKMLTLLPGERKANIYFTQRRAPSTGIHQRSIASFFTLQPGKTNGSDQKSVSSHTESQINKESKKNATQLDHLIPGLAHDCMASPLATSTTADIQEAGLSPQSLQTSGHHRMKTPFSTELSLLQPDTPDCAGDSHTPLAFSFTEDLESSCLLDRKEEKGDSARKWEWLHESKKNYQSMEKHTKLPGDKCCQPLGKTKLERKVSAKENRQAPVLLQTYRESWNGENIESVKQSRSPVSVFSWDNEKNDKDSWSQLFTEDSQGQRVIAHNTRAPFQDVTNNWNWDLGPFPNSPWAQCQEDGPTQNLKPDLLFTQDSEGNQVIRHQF
UniProt O00512: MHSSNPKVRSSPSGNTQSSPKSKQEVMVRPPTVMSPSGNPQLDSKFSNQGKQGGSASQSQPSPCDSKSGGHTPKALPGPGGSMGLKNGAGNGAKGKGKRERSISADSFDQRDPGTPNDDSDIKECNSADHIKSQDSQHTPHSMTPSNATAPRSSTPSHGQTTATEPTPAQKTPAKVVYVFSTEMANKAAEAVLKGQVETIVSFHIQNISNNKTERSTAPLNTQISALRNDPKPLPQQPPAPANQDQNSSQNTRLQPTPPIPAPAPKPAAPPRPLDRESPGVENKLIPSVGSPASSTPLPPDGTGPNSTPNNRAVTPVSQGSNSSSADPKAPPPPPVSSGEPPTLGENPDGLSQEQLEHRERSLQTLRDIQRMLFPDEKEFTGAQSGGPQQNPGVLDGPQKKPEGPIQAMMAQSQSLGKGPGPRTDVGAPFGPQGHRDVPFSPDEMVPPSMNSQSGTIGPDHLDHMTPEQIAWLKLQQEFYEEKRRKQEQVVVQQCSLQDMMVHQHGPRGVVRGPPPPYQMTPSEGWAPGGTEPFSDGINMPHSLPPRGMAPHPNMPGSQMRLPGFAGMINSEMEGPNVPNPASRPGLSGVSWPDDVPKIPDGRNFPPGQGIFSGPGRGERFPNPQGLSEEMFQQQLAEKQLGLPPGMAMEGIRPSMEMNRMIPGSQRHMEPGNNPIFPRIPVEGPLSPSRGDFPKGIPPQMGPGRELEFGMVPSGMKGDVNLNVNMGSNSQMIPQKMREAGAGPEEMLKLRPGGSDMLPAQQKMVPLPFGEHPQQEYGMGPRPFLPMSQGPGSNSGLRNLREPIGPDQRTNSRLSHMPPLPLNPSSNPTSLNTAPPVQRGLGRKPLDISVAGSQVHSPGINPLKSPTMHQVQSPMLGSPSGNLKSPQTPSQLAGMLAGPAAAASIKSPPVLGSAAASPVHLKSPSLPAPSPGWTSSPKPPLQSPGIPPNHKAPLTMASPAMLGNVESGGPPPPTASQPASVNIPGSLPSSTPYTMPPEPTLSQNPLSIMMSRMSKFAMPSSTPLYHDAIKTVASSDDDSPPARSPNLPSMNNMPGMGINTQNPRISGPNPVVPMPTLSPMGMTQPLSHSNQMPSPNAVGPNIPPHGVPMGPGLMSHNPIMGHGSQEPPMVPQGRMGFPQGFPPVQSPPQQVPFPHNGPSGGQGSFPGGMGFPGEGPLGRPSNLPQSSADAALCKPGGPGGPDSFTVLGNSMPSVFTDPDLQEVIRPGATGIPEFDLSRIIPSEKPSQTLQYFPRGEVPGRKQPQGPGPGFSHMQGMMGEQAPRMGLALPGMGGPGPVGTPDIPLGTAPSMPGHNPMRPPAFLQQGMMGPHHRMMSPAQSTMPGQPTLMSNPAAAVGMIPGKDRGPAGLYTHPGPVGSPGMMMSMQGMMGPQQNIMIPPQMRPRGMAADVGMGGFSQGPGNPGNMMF
UniProt Q9HCU9: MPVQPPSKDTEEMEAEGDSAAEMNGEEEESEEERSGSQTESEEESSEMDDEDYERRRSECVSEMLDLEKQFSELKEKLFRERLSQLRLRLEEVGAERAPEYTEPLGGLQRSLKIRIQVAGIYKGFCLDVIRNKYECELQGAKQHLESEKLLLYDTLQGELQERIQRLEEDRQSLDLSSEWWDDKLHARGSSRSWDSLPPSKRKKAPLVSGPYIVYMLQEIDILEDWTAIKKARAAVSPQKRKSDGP
UniProt Q9UIG0: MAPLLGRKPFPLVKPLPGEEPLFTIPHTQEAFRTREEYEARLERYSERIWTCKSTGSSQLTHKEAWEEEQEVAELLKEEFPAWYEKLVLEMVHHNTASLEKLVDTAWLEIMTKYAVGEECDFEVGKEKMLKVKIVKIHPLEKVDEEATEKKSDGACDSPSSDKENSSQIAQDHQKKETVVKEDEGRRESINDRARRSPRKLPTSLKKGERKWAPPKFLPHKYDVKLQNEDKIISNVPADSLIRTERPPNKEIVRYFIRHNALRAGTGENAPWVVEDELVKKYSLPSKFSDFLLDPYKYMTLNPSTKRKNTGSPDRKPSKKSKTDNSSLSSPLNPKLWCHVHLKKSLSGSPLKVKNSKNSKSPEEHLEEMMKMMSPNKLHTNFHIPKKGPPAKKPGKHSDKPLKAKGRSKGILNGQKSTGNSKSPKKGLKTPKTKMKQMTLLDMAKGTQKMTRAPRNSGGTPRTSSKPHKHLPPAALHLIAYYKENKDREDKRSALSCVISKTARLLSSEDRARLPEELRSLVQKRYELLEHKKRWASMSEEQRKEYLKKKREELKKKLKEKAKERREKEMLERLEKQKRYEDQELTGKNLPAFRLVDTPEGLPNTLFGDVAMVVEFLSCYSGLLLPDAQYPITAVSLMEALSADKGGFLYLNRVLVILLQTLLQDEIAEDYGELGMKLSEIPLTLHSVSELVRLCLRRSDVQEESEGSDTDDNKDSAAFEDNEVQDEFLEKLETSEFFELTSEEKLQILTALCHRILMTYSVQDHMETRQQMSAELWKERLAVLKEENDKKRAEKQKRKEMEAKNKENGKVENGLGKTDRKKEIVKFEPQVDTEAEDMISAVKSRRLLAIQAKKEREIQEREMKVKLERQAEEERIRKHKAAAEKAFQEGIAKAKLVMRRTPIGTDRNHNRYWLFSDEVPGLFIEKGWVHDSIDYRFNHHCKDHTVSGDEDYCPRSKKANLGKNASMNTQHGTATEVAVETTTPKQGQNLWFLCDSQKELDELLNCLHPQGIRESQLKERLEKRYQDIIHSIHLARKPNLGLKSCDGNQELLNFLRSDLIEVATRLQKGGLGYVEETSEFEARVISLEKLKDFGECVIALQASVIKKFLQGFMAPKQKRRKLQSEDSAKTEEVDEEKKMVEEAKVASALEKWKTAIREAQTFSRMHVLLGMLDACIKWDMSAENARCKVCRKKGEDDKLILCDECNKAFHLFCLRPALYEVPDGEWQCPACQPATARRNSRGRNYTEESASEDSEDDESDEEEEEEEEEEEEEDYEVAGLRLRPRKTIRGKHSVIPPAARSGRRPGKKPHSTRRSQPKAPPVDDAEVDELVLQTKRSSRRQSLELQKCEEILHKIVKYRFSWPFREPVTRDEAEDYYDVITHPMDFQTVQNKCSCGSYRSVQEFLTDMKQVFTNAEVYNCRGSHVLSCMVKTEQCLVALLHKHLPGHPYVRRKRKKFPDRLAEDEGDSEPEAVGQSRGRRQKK

compound: Cn1cncc1[C@@](N)(c1ccc(Cl)cc1)c1ccc2c(c1)c(-c1cccc(Cl)c1)cc(=O)n2C [tipifarnib]; assay: log2 fold change, soluble protein after heating vs DMSO (PISA); higher = thermal stabilisation; K562 cells, 10 uM, 30 min; active = over 0.2 and 3.5 SD of the protein, either way, in both replicates (recomputed)
Summary of the method: (§1)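 Values are thermal stability changes relative to control samples and are taken from duplicates. They are stated as log2 fold changes. Before quantification by TMTpro 16plex LC-MS/MS with equalised channel sums, K562 cells at 2×10^6 cells/mL were treated with 10 μM compound for 30 min, heated in aliquots for 3 min across 48°C-58°C, pooled, extracted in PBS with 0.5% NP-40 at 4°C, and centrifuged at 21,000xg for 90 min to give the soluble supernatant.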

Target | log2 fold change
BAHD1 (UniProt Q8TBE0) | inactive: 0.112
BRCA1 isoform 7 (UniProt P38398) | inactive: 0.179
BCL7A isoform 2 (UniProt Q4VC05) | inactive: -0.027
BET1L (UniProt Q9NYM9) | inactive: 0.045
BFAR (UniProt Q9NZS9) | inactive: -0.101
BCAS3 isoform 8 (UniProt Q9H6U6) | inactive: -0.037
AUNIP isoform 2 (UniProt Q9H7T9) | active: -0.844
BCL9 (UniProt O00512) | inactive: 0.118

compound: FC(F)(F)c1ccc(/C=C/c2nc(COc3ccc(CCCCn4ccnn4)cc3)co2)cc1 [mubritinib]; assay: as above
Summary of the method: as §1

Target | log2 fold change
ATXN2 (UniProt F8W0B5) | inactive: 0.045
BAHD1 (UniProt Q8TBE0) | inactive: -0.019
BRMS1 (UniProt Q9HCU9) | inactive: 0.179
BCL7B (UniProt Q9BQE9) | inactive: -0.036
BCL2L11 (UniProt O43521) | inactive: -0.01
BIN1 (UniProt O00499) | inactive: 0.098
BCL7C (UniProt Q8WUZ0) | inactive: -0.707
BAP18 isoform 3 (UniProt Q8IXM2) | inactive: 0.117
BRCA1 isoform 7 (UniProt P38398) | inactive: -0.163
BET1L (UniProt Q9NYM9) | inactive: 0.088
BFAR (UniProt Q9NZS9) | inactive: 0.121
BOD1 (UniProt Q96IK1) | inactive: -0.066
AURKAIP1 (UniProt Q9NWT8) | inactive: -0.041
BAZ1B (UniProt Q9UIG0) | inactive: 0.079
BRAF, A0A2R8Y8E0 | inactive: 0.113
BNIP3L (UniProt O60238) | inactive: -0.011

compound: NC(=O)Nc1cc(-c2cccc(F)c2)sc1C(=O)N[C@H]1CCCNC1; assay: as above
Summary of the method: as §1

Target | log2 fold change
ATXN2 (UniProt F8W0B5) | inactive: 0.03
BAIAP2 isoform 4 (UniProt Q9UQB8) | inactive: 0.019
BHMT (UniProt Q93088) | inactive: -0.035
BPIFB1 (UniProt Q8TDL5) | inactive: 1.73
BCL2L11 (UniProt O43521) | inactive: -0.054
BRCA1 isoform 7 (UniProt P38398) | inactive: -0.477
BCL7A isoform 2 (UniProt Q4VC05) | inactive: 0.035
B4GALT2 isoform 3 (UniProt O60909) | inactive: -0.034
BET1L (UniProt Q9NYM9) | inactive: -0.051
AURKAIP1 (UniProt Q9NWT8) | inactive: 0.113
BAZ1B (UniProt Q9UIG0) | inactive: 0.048
BLZF1 (UniProt Q9H2G9) | inactive: 0.088
AUNIP isoform 2 (UniProt Q9H7T9) | inactive: -0.194
BPTF (UniProt Q12830) | inactive: 0.141
BCL9 (UniProt O00512) | inactive: -0.026
B3GNT8 (UniProt Q7Z7M8) | inactive: 0.165

compound: NC(=O)c1cnc(N[C@@H]2CCCC[C@@H]2N)nc1Nc1cccc(-n2nccn2)c1; assay: as above
Summary of the method: as §1

Target | log2 fold change
ATXN2 (UniProt F8W0B5) | inactive: 0.018
BRMS1 (UniProt Q9HCU9) | inactive: 0.15
BCL2L11 (UniProt O43521) | inactive: 0.009
BCL7A isoform 2 (UniProt Q4VC05) | inactive: -0.003
BET1L (UniProt Q9NYM9) | inactive: -0.033
AURKB isoform 5 (UniProt Q96GD4) | inactive: -0.107
AURKAIP1 (UniProt Q9NWT8) | inactive: 0.045
BRAF, A0A2R8Y8E0 | inactive: 0.214
BCAS3 isoform 8 (UniProt Q9H6U6) | inactive: 0.015
AUNIP isoform 2 (UniProt Q9H7T9) | inactive: -0.037
ATRX (UniProt P46100) | inactive: 0.08
BCL9 (UniProt O00512) | inactive: -0.022

compound: NC1(c2ccc(-c3nc4ccn5c(=O)[nH]nc5c4cc3-c3ccccc3)cc2)CCC1; assay: as above
Summary of the method: as §1

Target | log2 fold change
ATXN2 (UniProt F8W0B5) | inactive: 0.069
BAHD1 (UniProt Q8TBE0) | inactive: -0.084
BRMS1 (UniProt Q9HCU9) | inactive: 0.121
BCL7B (UniProt Q9BQE9) | inactive: 0.098
BCL2L11 (UniProt O43521) | inactive: 0.019
BIN1 (UniProt O00499) | inactive: 0.109
BCL7C (UniProt Q8WUZ0) | inactive: -0.044
BAP18 isoform 3 (UniProt Q8IXM2) | inactive: -0.042
BRCA1 isoform 7 (UniProt P38398) | inactive: -0.057
BET1L (UniProt Q9NYM9) | inactive: -0.062
BFAR (UniProt Q9NZS9) | inactive: -0.114
BOD1 (UniProt Q96IK1) | inactive: 0.019
AURKAIP1 (UniProt Q9NWT8) | inactive: 0.239
BAZ1B (UniProt Q9UIG0) | inactive: 0.016
BRAF, A0A2R8Y8E0 | inactive: -0.31
BNIP3L (UniProt O60238) | inactive: -0.004
